Source: patent publication US20240182445A1 (ONO PHARMACEUTICAL CO., LTD., priority 2019, published 2024)
The structures given here were assigned with low confidence; some may be wrong.

By UniProt entry, the sequences of proteins in these tests, tags left out.
UniProt O95069, whole entry: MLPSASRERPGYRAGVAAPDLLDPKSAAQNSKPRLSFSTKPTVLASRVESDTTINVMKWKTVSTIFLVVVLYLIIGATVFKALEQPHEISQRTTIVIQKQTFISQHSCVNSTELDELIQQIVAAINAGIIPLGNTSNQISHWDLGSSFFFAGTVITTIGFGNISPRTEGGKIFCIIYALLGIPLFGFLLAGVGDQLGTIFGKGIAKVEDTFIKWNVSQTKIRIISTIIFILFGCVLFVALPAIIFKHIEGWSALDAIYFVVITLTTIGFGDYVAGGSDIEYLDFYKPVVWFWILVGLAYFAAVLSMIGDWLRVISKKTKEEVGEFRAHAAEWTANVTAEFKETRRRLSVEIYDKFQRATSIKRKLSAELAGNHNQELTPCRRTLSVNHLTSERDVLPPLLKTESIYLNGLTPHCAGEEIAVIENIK

Target: human TREK-1 (Homo sapiens, UniProt O95069)
Assay: TREK-1 Thallium (Tl+) flux assay, Method 1
Details: read-out: Tl+ Assay IC50
Method: The term “thallium flux assay” herein refers to a fluorescence-based assay used to monitor the activity of TREK channels. Thallium is a congener of potassium that readily fluxes through the pore of TREK channels. Thallium flux is measured using a commercially available, thallium-sensitive fluorescent dye called Thallos. The detail method is described below.
CHO-K1 cells stably expressing human TREK-1 were plated in 384-well plates, cultured overnight, loaded with Thallos dye the following day. Test compounds or control compound (tert-butyl (3-((4-(benzyloxy)-2-methylphenyl)carbamoyl)-4-chlorophenyl)carbamate) or 0.3% DMSO (vehicle control) which were prepared on separate plates were added to the cell plates and incubated for 10 min, and then the cells were treated with thallium stimulus buffer to initiate thallium flux. To measure the efficacy and potency of test compounds, the change in fluorescence intensity (ΔRatio) and % inhibition were calculated using the following equations:
ΔRatio=(fluorescence intensity at 25 seconds after thallium addition)/(average of fluorescent intensity before thallium addition)
% inhibition={1−(ΔRatio of test compound−ΔRatio of 10 μM control compound)/(ΔRatio of 0.3% DMSO−ΔRatio of 10 μM control compound)}×100

SMILES: Cc1cc(OCc2ccccc2)ccc1NC(=O)c1c(Cl)cnn1CC1CN(C(=O)C(C)(C)C)CCO1 (stereo not shown)
- IC50: 3.98 µM
